Measurements: the supplement of paper PMC10849652
This is one part of the list.

By UniProt entry, the sequences of proteins in these tests, tags left out. Where a name states a change or a piece, a line headed by the entry shows the natural chain unless it says otherwise.
UniProt H0YL14: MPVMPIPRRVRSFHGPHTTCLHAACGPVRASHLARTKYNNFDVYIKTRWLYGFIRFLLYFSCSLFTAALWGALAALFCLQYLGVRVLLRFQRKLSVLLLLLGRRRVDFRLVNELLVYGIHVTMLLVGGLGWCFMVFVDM
UniProt Q59H18: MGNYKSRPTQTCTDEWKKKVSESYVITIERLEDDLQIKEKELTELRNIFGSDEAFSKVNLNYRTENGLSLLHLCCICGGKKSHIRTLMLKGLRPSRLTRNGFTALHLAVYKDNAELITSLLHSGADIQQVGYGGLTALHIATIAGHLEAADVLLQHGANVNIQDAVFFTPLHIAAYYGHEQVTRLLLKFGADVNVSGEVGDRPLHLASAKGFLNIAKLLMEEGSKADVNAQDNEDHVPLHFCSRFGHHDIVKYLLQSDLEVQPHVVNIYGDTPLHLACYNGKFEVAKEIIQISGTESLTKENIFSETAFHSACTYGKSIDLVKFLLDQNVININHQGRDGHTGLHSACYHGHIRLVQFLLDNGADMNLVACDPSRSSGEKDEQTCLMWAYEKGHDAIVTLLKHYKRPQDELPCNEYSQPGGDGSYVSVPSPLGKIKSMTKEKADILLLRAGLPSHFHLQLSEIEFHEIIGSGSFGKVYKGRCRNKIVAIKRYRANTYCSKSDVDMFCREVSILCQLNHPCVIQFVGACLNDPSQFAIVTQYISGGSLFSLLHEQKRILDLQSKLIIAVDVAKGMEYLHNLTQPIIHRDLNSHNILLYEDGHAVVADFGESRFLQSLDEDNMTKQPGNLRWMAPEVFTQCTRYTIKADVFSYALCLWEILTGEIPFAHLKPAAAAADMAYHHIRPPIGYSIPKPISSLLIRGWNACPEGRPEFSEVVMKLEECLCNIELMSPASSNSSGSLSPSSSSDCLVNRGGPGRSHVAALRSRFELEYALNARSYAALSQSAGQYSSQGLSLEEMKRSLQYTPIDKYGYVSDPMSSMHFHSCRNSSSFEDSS
UniProt Q96B49: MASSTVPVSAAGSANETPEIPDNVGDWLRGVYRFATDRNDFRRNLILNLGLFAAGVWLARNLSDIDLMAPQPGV
UniProt Q9BTX3: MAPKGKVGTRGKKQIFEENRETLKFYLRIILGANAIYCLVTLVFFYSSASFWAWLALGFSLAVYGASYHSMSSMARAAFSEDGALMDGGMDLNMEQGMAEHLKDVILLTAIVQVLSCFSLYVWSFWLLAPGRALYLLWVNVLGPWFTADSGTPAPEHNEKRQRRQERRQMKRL
UniProt P42167: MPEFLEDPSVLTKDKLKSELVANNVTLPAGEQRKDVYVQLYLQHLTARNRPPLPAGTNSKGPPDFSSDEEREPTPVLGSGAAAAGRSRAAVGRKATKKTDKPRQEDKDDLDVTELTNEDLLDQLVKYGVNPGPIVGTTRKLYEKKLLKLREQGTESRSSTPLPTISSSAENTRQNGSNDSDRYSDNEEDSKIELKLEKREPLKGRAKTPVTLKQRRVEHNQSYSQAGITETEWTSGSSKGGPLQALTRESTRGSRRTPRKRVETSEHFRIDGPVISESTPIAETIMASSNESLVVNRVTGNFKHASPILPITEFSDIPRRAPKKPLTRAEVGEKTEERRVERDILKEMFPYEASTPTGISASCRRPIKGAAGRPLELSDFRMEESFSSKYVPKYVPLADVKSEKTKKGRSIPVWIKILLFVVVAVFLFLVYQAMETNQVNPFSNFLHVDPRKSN
UniProt Q07912: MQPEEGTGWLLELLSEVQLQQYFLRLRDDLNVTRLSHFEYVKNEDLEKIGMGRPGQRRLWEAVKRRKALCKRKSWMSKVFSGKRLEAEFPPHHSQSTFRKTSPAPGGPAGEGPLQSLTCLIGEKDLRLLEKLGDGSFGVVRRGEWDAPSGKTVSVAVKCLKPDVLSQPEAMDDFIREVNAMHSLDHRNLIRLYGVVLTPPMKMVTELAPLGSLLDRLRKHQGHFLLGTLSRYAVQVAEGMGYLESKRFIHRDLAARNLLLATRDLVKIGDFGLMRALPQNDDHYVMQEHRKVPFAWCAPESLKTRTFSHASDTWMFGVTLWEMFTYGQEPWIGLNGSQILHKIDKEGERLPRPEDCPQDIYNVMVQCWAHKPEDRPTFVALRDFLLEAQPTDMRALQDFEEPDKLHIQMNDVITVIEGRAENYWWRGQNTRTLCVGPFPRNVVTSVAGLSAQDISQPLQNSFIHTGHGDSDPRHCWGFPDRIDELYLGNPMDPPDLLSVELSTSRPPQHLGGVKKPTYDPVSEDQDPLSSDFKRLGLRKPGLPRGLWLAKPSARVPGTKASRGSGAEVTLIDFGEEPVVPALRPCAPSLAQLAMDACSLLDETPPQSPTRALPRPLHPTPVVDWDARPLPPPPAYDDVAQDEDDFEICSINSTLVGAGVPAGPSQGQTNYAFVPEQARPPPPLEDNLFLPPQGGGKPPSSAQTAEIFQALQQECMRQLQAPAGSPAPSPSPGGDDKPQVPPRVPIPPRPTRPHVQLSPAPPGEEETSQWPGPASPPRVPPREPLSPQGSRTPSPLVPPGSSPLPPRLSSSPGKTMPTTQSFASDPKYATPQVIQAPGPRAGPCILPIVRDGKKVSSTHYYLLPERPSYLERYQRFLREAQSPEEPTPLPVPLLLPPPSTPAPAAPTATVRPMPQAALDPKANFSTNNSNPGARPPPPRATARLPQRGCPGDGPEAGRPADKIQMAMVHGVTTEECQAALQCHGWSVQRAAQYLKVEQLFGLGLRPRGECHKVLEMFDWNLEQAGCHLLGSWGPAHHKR
UniProt P62328: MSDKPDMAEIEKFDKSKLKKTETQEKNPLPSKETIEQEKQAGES
UniProt Q9H0R3: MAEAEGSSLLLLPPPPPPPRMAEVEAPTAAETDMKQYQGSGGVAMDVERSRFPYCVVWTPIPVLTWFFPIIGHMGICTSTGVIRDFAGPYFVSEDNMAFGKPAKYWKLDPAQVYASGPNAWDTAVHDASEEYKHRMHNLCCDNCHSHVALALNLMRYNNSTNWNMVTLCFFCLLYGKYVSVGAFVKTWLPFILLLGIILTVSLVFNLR
UniProt O60784, whole entry, looked up: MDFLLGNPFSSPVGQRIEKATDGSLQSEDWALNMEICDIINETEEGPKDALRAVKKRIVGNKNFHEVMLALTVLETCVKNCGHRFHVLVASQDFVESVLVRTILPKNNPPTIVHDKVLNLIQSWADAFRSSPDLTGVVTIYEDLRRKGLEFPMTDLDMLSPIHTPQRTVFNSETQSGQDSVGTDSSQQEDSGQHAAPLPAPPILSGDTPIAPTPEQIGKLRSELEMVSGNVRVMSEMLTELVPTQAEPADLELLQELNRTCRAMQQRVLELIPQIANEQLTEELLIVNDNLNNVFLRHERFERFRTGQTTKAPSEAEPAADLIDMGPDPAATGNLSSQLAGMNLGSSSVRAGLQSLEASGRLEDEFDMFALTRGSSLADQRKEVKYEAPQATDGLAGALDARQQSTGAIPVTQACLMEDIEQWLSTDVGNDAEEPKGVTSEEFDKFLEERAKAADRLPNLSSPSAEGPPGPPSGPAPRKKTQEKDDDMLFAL
UniProt Q9P0U1: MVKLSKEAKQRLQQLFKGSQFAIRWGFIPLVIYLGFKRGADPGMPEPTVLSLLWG
UniProt Q8N2U0: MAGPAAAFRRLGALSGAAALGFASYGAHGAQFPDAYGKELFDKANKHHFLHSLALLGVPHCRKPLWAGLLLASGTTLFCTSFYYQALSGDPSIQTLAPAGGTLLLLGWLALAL
UniProt Q9H496: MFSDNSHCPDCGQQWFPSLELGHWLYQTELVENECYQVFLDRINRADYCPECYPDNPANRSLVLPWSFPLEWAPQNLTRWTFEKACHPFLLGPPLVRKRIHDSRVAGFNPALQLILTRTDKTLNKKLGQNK
UniProt P63313: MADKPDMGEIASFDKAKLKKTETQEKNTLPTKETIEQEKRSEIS
UniProt O95807: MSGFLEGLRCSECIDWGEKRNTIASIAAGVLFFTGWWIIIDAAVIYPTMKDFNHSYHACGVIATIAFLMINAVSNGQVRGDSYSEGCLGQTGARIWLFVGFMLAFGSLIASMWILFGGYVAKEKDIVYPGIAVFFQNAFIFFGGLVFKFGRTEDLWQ
UniProt Q9HCN3: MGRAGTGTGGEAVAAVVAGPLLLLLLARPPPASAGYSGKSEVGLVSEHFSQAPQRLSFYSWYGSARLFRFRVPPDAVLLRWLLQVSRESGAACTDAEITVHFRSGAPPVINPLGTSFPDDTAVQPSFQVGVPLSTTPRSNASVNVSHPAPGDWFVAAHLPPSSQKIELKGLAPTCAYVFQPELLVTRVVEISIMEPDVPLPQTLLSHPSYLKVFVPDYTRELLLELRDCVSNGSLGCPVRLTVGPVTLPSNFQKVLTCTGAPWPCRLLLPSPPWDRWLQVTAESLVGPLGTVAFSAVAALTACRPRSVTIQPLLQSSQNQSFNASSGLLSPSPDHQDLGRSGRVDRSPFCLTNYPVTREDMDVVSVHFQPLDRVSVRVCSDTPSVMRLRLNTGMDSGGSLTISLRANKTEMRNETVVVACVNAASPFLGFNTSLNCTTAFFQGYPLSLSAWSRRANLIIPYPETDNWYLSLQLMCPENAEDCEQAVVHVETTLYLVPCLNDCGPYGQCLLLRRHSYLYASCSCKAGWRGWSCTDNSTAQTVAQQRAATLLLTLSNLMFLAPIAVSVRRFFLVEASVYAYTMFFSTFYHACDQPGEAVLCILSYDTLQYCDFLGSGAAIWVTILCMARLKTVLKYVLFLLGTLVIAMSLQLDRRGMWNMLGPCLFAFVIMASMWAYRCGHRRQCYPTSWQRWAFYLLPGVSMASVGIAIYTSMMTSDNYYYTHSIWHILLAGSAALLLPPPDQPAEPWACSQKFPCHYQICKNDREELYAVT
UniProt Q96Q45: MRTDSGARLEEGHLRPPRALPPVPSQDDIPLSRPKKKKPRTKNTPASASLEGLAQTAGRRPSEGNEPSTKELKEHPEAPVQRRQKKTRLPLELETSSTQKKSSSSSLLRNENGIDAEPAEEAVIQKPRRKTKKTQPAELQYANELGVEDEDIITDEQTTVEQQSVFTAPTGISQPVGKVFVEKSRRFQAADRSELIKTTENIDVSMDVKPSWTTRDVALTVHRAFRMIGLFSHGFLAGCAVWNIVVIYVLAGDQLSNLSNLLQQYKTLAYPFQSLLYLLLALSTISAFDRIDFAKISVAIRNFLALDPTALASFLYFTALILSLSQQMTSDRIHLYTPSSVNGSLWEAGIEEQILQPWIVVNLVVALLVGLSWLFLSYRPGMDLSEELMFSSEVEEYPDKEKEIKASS
UniProt Q96SK2: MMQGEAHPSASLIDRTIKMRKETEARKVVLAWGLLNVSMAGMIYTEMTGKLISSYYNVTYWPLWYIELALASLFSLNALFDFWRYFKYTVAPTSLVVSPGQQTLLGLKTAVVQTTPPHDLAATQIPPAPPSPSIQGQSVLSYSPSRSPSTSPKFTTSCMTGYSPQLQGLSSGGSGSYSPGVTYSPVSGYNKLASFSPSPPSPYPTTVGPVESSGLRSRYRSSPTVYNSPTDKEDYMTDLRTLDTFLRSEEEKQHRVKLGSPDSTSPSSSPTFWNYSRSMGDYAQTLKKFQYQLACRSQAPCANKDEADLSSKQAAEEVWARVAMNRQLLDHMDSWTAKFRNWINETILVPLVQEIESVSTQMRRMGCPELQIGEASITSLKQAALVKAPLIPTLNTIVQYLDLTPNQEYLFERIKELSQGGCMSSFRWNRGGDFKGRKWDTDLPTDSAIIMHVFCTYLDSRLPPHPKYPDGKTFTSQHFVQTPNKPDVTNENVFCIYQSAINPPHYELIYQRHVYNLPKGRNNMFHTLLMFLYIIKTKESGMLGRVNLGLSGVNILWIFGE
UniProt Q86W33: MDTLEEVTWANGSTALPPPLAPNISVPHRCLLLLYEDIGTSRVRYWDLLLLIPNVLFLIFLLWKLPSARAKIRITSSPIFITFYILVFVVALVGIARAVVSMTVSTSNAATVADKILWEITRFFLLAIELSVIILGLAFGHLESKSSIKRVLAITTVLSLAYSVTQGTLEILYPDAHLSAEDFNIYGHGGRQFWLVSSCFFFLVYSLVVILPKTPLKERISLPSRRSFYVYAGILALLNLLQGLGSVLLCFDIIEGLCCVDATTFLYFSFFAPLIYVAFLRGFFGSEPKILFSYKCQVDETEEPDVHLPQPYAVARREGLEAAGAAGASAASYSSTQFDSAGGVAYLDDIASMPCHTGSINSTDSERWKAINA
UniProt Q0VDI3: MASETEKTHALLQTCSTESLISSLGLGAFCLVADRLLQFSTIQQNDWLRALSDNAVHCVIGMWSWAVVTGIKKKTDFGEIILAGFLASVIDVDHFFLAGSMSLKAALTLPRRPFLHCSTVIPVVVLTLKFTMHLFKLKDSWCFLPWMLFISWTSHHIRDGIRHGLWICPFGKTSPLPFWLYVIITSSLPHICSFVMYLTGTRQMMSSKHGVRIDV
UniProt A5PLL7: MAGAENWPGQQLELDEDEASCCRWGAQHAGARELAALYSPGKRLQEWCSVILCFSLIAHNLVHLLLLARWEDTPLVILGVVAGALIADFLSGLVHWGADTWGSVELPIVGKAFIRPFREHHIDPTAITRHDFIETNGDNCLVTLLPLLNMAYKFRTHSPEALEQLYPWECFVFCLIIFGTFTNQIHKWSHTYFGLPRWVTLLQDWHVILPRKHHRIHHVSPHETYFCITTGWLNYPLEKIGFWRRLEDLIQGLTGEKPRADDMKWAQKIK

Assays:
Assay in all cases: log2 fold change, soluble protein after heating vs DMSO (PISA); higher = thermal stabilisation; K562 lysate, 10 uM; active = over 0.2 and 3.5 SD of the protein, either way, in both replicates (recomputed)
[1] = compound: NCC(=O)Nc1ccc(-n2nc(C(F)(F)F)cc2-c2ccc3c(ccc4ccccc43)c2)cc1
Method in brief: (§1)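 Values give the log-two fold change in thermal stability against solvent controls, from duplicates. Crude K562 extract at 1 mg/mL protein, made by dounce homogenisation in PBS pH 7.4 with 1 mM MgCl2, was treated with 10 μM compound for 30 min. After 3 min heating across 48°C-58°C, aliquots were pooled, adjusted to 0.5% NP-40 at 4°C and centrifuged at 21,000xg for 90 min. The supernatant was measured by TMTpro 16plex LC-MS/MS with channel sums equalised.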

vorinostat = compound: O=C(CCCCCCC(=O)Nc1ccccc1)NO [vorinostat]
Method in brief: as §1

silmitasertib = compound: O=C(O)c1ccc2c(c1)nc(Nc1cccc(Cl)c1)c1ccncc12 [silmitasertib]
Method in brief: as §1

entospletinib = compound: c1cn2cc(-c3ccc4cn[nH]c4c3)nc(Nc3ccc(N4CCOCC4)cc3)c2n1 [entospletinib]
Method in brief: as §1

[2] = compound: O=C1NC(=O)C(c2cnc3ccccn23)=C1c1cn2c3c(cc(F)cc13)CN(C(=O)N1CCCCC1)CC2
Method in brief: as §1

Measured: log2 fold change

TOPAZ1 (UniProt Q8N9V7)
inactive: [1] 0.036 | vorinostat 0.065 | silmitasertib -0.001 | entospletinib -0.035

TOP3B (UniProt O95985)
inactive: [1] 0.046 | vorinostat -0.054 | silmitasertib 0.009 | [2] 0.018 | entospletinib 0.012

TMEM250 (UniProt H0YL14)
inactive: [2] 0.187

TNNI3K isoform 1 (UniProt Q59H18)
inactive: [1] 0.012 | vorinostat -0.483 | silmitasertib -0.06 | [2] 0.118 | entospletinib 0.002

TNFAIP3 (UniProt P21580)
inactive: vorinostat -0.12 | silmitasertib -0.003 | [2] 0.004 | entospletinib 0.044

TOMM6 (UniProt Q96B49)
inactive: [1] -0.171 | vorinostat -0.035 | silmitasertib -0.063 | entospletinib 0.004

TMX4 (UniProt Q9H1E5)
inactive: [1] 0.005 | vorinostat 0.079 | silmitasertib -0.044 | [2] -0.005 | entospletinib -0.06

TMEM246 (UniProt Q9BRR3)
inactive: vorinostat -0.03 | silmitasertib -0.042

TMEM208 (UniProt Q9BTX3)
inactive: vorinostat 0.148 | silmitasertib 0.037 | [2] -0.029 | entospletinib 0.018

TMEM273 isoform 2 (UniProt Q5T292)
inactive: vorinostat 0.046 | silmitasertib -0.061 | [2] -0.128

TMPO isoform 2 (UniProt P42167)
inactive: [1] -0.066 | entospletinib 0.032

TPRN (UniProt Q4KMQ1)
inactive: [2] -0.024

TNIK isoform 5 (UniProt Q9UKE5)
inactive: [2] -0.134

TNK2 isoform 3 (UniProt Q07912)
inactive: [2] -0.211

TMSB4X (UniProt P62328)
inactive: vorinostat 0.103 | silmitasertib -0.076 | [2] 0.219 | entospletinib -0.158

TPD52L2 isoform 3 (UniProt O43399)
inactive: vorinostat 0.258 | silmitasertib -0.058

TMEM242 (UniProt Q9NWH2)
inactive: [1] 0.193 | [2] 0.104 | entospletinib 0.002

TMEM222 (UniProt Q9H0R3)
inactive: vorinostat 0.067 | silmitasertib 0.034 | [2] -0.008 | entospletinib 0.008

TOM1 (UniProt O60784)
inactive: [1] -0.001 | vorinostat 0.088 | silmitasertib 0.171 | entospletinib 0

TPK1 (UniProt Q9H3S4)
inactive: [1] 0.09 | vorinostat 0.11 | silmitasertib -0.113 | entospletinib -0.05

TOMM7 (UniProt Q9P0U1)
inactive: [1] 0.005 | vorinostat 0.024 | silmitasertib -0.018 | [2] -0.027 | entospletinib -0.004

TMEM256 (UniProt Q8N2U0)
inactive: [1] -0.177 | entospletinib 0.054

TMEM41B (UniProt Q5BJD5)
inactive: vorinostat -0.034 | silmitasertib 0.021 | [2] 0.008 | entospletinib 0.018

TOR1AIP2 (UniProt Q9H496)
inactive: [1] 0.123 | vorinostat -0.125 | silmitasertib 0.013 | [2] -0.062 | entospletinib -0.231

TPD52 isoform 3 (UniProt P55327)
inactive: vorinostat 0.168 | silmitasertib -0.028 | entospletinib -0.082

TNRC6C isoform 2 (UniProt Q9HCJ0)
inactive: vorinostat 0.064 | silmitasertib -0.003 | entospletinib 0.145

TMSB10 (UniProt P63313)
inactive: [1] 0.028 | vorinostat 0.254 | silmitasertib -0.075 | [2] 0.094 | entospletinib -0.09

TPT1 (UniProt E9PJF7)
inactive: vorinostat 0.223 | silmitasertib -0.05 | [2] 0.067

TMEM268 isoform 3 (UniProt Q5VZI3)
inactive: [2] -0.058 | entospletinib -0.072

TMEM50A (UniProt O95807)
inactive: entospletinib -0.352

TMEM8A (UniProt Q9HCN3)
inactive: [1] -0.069 | vorinostat 0.224 | silmitasertib -0.041 | entospletinib -0.004

2 successive records already listed:
TMEM208 (UniProt Q9BTX3)
inactive: vorinostat 0.148 | silmitasertib 0.037 | [2] -0.029 | entospletinib 0.018

TMEM273 isoform 2 (UniProt Q5T292)
inactive: vorinostat 0.046 | silmitasertib -0.061 | [2] -0.128

(cont.)

TMEM237 isoform 3 (UniProt Q96Q45)
inactive: [1] 0.008 | [2] 0.04

TMTC4 isoform 3 (UniProt Q5T4D3)
inactive: entospletinib -0.054

TNS1 (UniProt Q9HBL0)
inactive: [2] 0.002 | entospletinib 0.09

TMEM209 (UniProt Q96SK2)
inactive: vorinostat 0.062 | silmitasertib -0.073 | [2] -0.014

TPRA1 (UniProt Q86W33)
inactive: vorinostat -0.298 | silmitasertib 0.051 | [2] 0.012

TMEM267 (UniProt Q0VDI3)
inactive: vorinostat -0.212 | silmitasertib 0.078 | [2] 0.078

TMEM94 isoform 2 (UniProt Q12767)
inactive: [1] 0.084 | vorinostat -0.093 | silmitasertib 0.091 | [2] 0.045 | entospletinib 0.081

TMEM189 (UniProt A5PLL7)
inactive: vorinostat 0.144 | silmitasertib -0.036 | [2] -0.023 | entospletinib -0.054

TMEM44 (UniProt Q2T9K0)
inactive: entospletinib -0.084
